We go through 104 sequences from PubChem BioAssay AID1347423 (Functional Genomics Laboratory (NCATS/FGL), 2020).

Screen size: about 52,000 sequences; about 210 (0.4%) were called active.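 The calls were made as follows: active = gene whose silencing raises cell survival under the drug, median off-target-corrected z-score across its silencing RNAs 2 or more; inactive = the rest.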 Some of the results follow.

The nature of the assay: Resistance to Poly (ADP-Ribose) Polymerase inhibitor: Gene Identification via Genome-wide siRNA Screen. Particulars: mouse BRCA2 R2336H ES cells, olaparib, CellTiter-Glo viability; stronger effect = higher value. Put shortly:
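Genome-wide siRNA screen (3 siRNAs/gene, 20 nM) in mouse ES cells carrying hypomorphic BRCA2 R2336H; olaparib 500 nM added 48 h post-transfection, CellTiter-Glo viability 72 h later. Normalized to plate-median negative control; MAD z-scores, gene median, seed-adjusted.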
Background: ATP-based viability assays read luminescence as a measure of living cells.
In the case of GGGCUUCUUCAGACGAACATT against Nr1i3, the z-score was inactive: -2.42.

As to “CCACCCUCUCAUUACAGACTT against 9330174J19Rik”, the z-score is inactive: -1.23. For “GGAUCACAGCGAUUAUUGATT against D630028G08Rik”, the z-score is inactive: -0.512. Regarding GGUCUUAGUAAUAUCAUCGTT against Cacng2, the z-score was inactive: -0.19. The same measure for “CGACUGCCCAUAAGAAAACTT against 1700007H16Rik”: inactive: -0.642; for GCCAUCGCUAACUUACGGATT against BC024955: inactive: 0.805; for GGUCUUUCAGAAAGUAGAUTT against Btbd4: inactive: 0.425. The same measure for GCAAAAGGGCUGUUUGUAGTT against Olfr1279: inactive: 0.821; for CCACAAGGUCUUUGGAUGATT against Pcdha8: inactive: 0.67; for GGUCAAUGCUUACUAUUCATT against Kel: inactive: -0.857.

“GGUACCAUACGACAUUAAUTT against C330005L02Rik”: the z-score was inactive: 1.08. In the case of CGUGGUUAGACCAAAUAUUTT against Mrps6, the z-score was inactive: 0.125. With GCUGUGCUACCCUCAUUCUTT against Nxf, the z-score is inactive: 1.36. As for GGUAAAAGUAGAAGCUAUUTT against Zbtb3, the z-score is inactive: -1.31. GGAAAGUCAUUUCCCUGUUTT against Sprr2h: the z-score was inactive: -0.406.

Regarding CCAUGUCAAUAUAGCUGUCTT against Igfbpl1, the z-score was inactive: 0.645. For the sequence GGAGUGUGACAUUGGUGAUTT against Dusp22, the z-score was inactive: -0.983. CGCAACCAGUUUGUUCCUGTT against Ugt1a9: the z-score was inactive: -0.143. Take CGAUCGGCGACCUUUUAGATT against Irak3: the z-score is inactive: -1.08. Consider “GGACAGAAUCACGGUUUCCTT against 5830443L24Rik”, for which the z-score is inactive: -0.493. The same measure for “GCAUGUAAGUACUAGAUUATT against 3000002G13Rik”: inactive: 0.776; for GGUGGAAGCAAGAGAAAAUTT against Tnp1: inactive: -0.637. As to GGGAUUUCAUCGUGCAACGTT against Ndufa2, the z-score is inactive: 1.02.

In the case of GCUGGAUACUAAAUAUCCUTT against Dctd, the z-score is inactive: -0.832. For GGCCUUUGUACAUGUUAGGTT against Lman1l, the z-score was inactive: 0.663. For GGCACUAAUGUAAAAACCATT against Bbs7, the z-score was inactive: 0.579. On to “GGAGAAGCAUAAAUUUGAGTT against D230007K08Rik”, for which the z-score was inactive: -0.325. The same measure for GGCUUUCCUUACCAUAUAUTT against Trim7: inactive: -0.629; for GGUGACCUACAAUCUCAAATT against Adam2: inactive: 0.221. For “GCUAUUAGAGAGGACUAAGTT against A430105I19Rik”, the z-score was inactive: 0.842.

With GGCAAAGUUUGGGAUUACATT against Ntng1, the z-score is inactive: 0.342. For GGGAGGAGAAAAAUAUUCUTT against Olfr1094, the z-score is inactive: 0.314.

“GGAGAUUGAGAAGUUUCUATT against A930018B01Rik”: the z-score was inactive: -0.325. Turning to GCUGAUGUUUGUUAUGUACTT against Rgmb, the z-score was inactive: -0.74. For GGGCAAUGAAUGACAUUGGTT against Gabrd the value was inactive: -1.89; for GGUACCCACACAAUUUUUATT against Alg5, inactive: 0.232; for “GGUGAAAUGUCUUAUAACATT against 5430404L10Rik”, inactive: 0.695. In the case of CGGUAGAGUCAGCAUUUGATT against Sez6, the z-score was inactive: -0.0576. As for GCUACAGCCACACCAAAGUTT against Nkx2-9, the z-score is inactive: -1.15. As to GAAGCUAGAAGAGAUUAAATT against Tsga14, the z-score is inactive: -0.0798. The same measure for “GCUAUUCCGGAAUAAGAGUTT against B230343H07Rik”: inactive: -0.349; for “GGAGAAACUCUUCAGGCUUTT against 3930402F23Rik”: inactive: -1.41; for CGGCCUACAUCUUAGUGGUTT against Cd151: inactive: -1.59. As to GGUUACAGAGAGACAUCAUTT against Cdk5rap2, the z-score is inactive: 1.23. As to GGAAAGAAGGUGAACAACATT against Phax, the z-score was inactive: 0.545.

On to GCUGCUAUGAGAGAGUUUUTT against Serpind1, for which the z-score is inactive: -0.0941. Turning to “CCAGAUCCUAUCUUUCGAGTT against 2610318N02Rik”, the z-score is inactive: 0.535. GGCACCAUGUACCAAAUCCTT against Fetub: the z-score is inactive: 1.32. As for GUAAUCUGGCGAUUGUCUGTT against Hist1h2ab, the z-score is inactive: 0.0939. With GCCUUCAGUCCUAGAAACCTT against Lrrk1, the z-score was inactive: -1.29. As for GGAGGUGGAUGUUAAAGUUTT against Ubxd4, the z-score is inactive: 0.251. CCUGGACAUAACCAAUGUATT against Glrp1: the z-score is inactive: -0.0778.

Turning to GGUACAGGUUGACCAAACUTT against Atp6v1e2, the z-score is inactive: -0.139. As to GGACAACGAGUGUCUGGGUTT against Cx3cr1, the z-score was inactive: 1.98. For CCAGAUUAUGACAAAGCGUTT against Glyat the value was inactive: -0.0709; for CCUGGAUCGGAACCAAAUGTT against Ccl2, inactive: -2.11; for GGGCAAAAGUACUUUGACUTT against Ensa, inactive: -0.779. GGAAAAAGCGGUGACCAACTT against Ndufs2: the z-score is inactive: 0.403.

For the sequence GGUUUCUUGCCAAGAAAUUTT against Accn5, the z-score is inactive: 0.346. For GGUCUUCCUUCCAGUGUUCTT against Slc5a8, the z-score is inactive: 2.17.

Consider GGGCCAUUUUCGAUGGUAGTT against Hs3st3a, for which the z-score was inactive: 0.945. For GGUGAUCAAUACAAGCCGATT against Art1 the value was inactive: 0.0468; for GCUAAUGUCCGGUUUGUUGTT against Recql5, inactive: 1.32; for GCUCAGGAAUUUGACACCATT against Lphn3, inactive: 0.724. Turning to “AACUCGUGUGCAACGUGGUTT against 4833401D15Rik”, the z-score is inactive: 0.578. The same measure for GCUCAAGUGCGGAGAAUAATT against Tmem23: inactive: -2.04; for “GGGAUUUUCAGGGAGAUUUTT against 2810052M02Rik”: inactive: -0.649; for GGCAGAGGUACAAUCAGAUTT against Siat8b: inactive: 0.156. As to GGUACAGCUGGUUCUCUUUTT against Olfr1018, the z-score is inactive: 0.487. As for GGUAACAGCAUUGAAGGUUTT against C1qr1, the z-score was inactive: -0.952. For the sequence GGGCUCUACUAUUUUUUUUTT against Polh, the z-score was inactive: -0.851. For the sequence “GCUCGGCUUUAGAGACCUATT against 2810437L13Rik”, the z-score was inactive: 0.888. With GCAGUGACCUCUGGUCAUUTT against Abcc1, the z-score was inactive: 1.67. As to GGCGAUGAAGUCUACGUGATT against BC040774, the z-score was inactive: 0.00732. For CGGAAAGGCGAGGGAUACUTT against Fkbp5, the z-score is inactive: 0.765. For GGACAAGAAGAAGAAGCGCTT against Cbara1 the value was inactive: 1.39. For GAAUCCGAGAUACGAGCCUTT against H2-D4 the value was inactive: 0.794; for GGUGUAUUCAGAGAAGAAGTT against BC019731, inactive: -0.504; for GGUAUCAAGUGCAGAAUGUTT against Slc37a1, active: 1.99. With GGGUAUCUGUUCUGAUACUTT against Lsm11, the z-score is inactive: 0.413. On to GGCAGACCGGUAUUUUGUGTT against Ascc2, for which the z-score is inactive: 1.37.

As for GGAGUUUCUCCAAGAAAAATT against Hrbl, the z-score is inactive: 0.425. As to GGAGAUGAUCUUCAACCUUTT against Eya2, the z-score was inactive: -0.54.

With GGAUCAGAACGUGGUGCAUTT against Slc12a5, the z-score is inactive: 1.49. Take CCUAUAUCAUCAUGGUUUGTT against Txndc1: the z-score was inactive: 1.35. In the case of GGAGUGACAAAAAUGUCGGTT against Snx13, the z-score was inactive: 0.2.

For the sequence GGCUUCCUCAAGAACUUUCTT against Acly, the z-score is inactive: 0.644. For “CCUUGGGACUGACUGUAAGTT against A230072I16Rik”, the z-score is inactive: 2.25. “GGAGUUCAAGAUCUGGAAGTT against 2410004B18Rik”: the z-score is inactive: 0.554.

With GCAAAACAGUGUUCUAUUATT against Scap2, the z-score is inactive: -0.659. Regarding GCGAAAGACAGACACGACCTT against Slc4a4, the z-score was inactive: 0.367.

Regarding GGAACCAAAGCGAAUUUUATT against Hoxa11, the z-score is inactive: 0.0602. Regarding “GCUACAUCAUGAAAGACCCTT against 2210021J22Rik”, the z-score is inactive: 0.479. The same measure for GCAGACAACUAGACAUACATT against Selk: inactive: 0.087. CCUCAAAUUAGUGCAGUUATT against Dnahc8: the z-score was inactive: -0.786. For the sequence “GGGAUUAAAGAUUUGGUUGTT against 5430404L10Rik”, the z-score is inactive: -0.243. Turning to GGUUAUUUUGGCUAUAAGATT against Traf3, the z-score was inactive: 0.163. In the case of GGUCAUUCGCUUCGAAAAGTT against C1qb, the z-score is inactive: -0.857.

Take GCGAUGCUGGCAAGUAUGUTT against Robo1: the z-score was inactive: -0.283. The same measure for GGCUUCAGUGAUGAAUGAATT against MGC6357: inactive: -0.271; for “GCUGGUGUCUUAUGGCCUATT against 9130008F23Rik”: inactive: -0.704.

As to GCCUCUUCAUUUAGCUAAUTT against Klhl10, the z-score was inactive: 1.52.

For the sequence GGACAACAGUGGAAGGCUCTT against Serpinb1a, the z-score is inactive: -0.777.

Consider GGAAAAAGAAAAAGAAGGUTT against Timeless, for which the z-score is inactive: -0.806.
